From the supplement of paper PMC4604168 (melanoma cell lines)
The list shows a part of the results. Many values rest on one well or one pass, so single values are uncertain.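 Imaging used 1,536-well plates; nuclei positive for cleaved PARP by antibody were divided by total DNA-stained nuclei to yield the apoptosis fraction. Doses for screening kept most cells viable, and cell lines differ markedly in resting and induced cleaved-PARP levels.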

What was measured:
Test in all cases: cleaved PARP positive nuclei fraction relative to DMSO control; melanoma cells; higher = more apoptosis
Details in all cases: library dose: low library concentration; 72 h
WM115 = system: WM115
WM1716 = system: WM1716
WM1745 = system: WM1745
WM3526 = system: WM3526
WM3619 = system: WM3619
WM451Lu = system: WM451Lu

Row | Compound | cleaved PARP positive nuclei fraction (WM115) | cleaved PARP positive nuclei fraction (WM1716) | cleaved PARP positive nuclei fraction (WM1745) | cleaved PARP positive nuclei fraction (WM3526) | cleaved PARP positive nuclei fraction (WM3619) | cleaved PARP positive nuclei fraction (WM451Lu)
1 | CC1(C)CCC(c2ccc(Cl)cc2)=C(CN2CCN(c3ccc(C(=O)NS(=O)(=O)c4ccc(N[C@H](CCN5CCOCC5)CSc5ccccc5)c(S(=O)(=O)C(F)(F)F)c4)cc3)CC2)C1 + COCC[n+]1c2c(n(Cc3cnccn3)c1C)C(=O)c1ccccc1C2=O [YM155] (first compound 0.4 µM, partner dose 0.0004 µM) | 207% | 104% | 994% | 56.5% | 135% | 49.5%
2 | Cn1cnc2c(F)c(Nc3ccc(Br)cc3Cl)c(C(=O)NOCCO)cc21 [selumetinib] + C[C@]1(O)C[C@@H](c2nc(-c3ccc4ccc(-c5ccccc5)nc4c3)c3c(N)nccn32)C1 [OSI906] (first compound 0.015 µM, partner dose 0.4 µM) | 130% | 32.7% | 122% | 208% | 111% | 50.8%
3 | CCN(CC)CCNC(=O)c1c(C)[nH]c(/C=C2\C(=O)Nc3ccc(F)cc32)c1C [sunitinib] + NC(=O)Nc1cc(-c2cccc(F)c2)sc1C(=O)N[C@H]1CCCNC1 [AZD7762] (first compound 0.4 µM, partner dose 0.02 µM) | 139% | 72.4% | 109% | 469% | 101% | 61.5%
4 | CC1(C)CCC(c2ccc(Cl)cc2)=C(CN2CCN(c3ccc(C(=O)NS(=O)(=O)c4ccc(N[C@H](CCN5CCOCC5)CSc5ccccc5)c(S(=O)(=O)C(F)(F)F)c4)cc3)CC2)C1 + CC1(C)NC(=O)N(c2ccc([N+](=O)[O-])c(C(F)(F)F)c2)C1=O [nilutamide] (first compound 0.4 µM, partner dose 1 µM) | 68.4% | 229% | 322% | 133% | 106% | 108%
5 | CC1(C)CCC(c2ccc(Cl)cc2)=C(CN2CCN(c3ccc(C(=O)NS(=O)(=O)c4ccc(N[C@H](CCN5CCOCC5)CSc5ccccc5)c(S(=O)(=O)C(F)(F)F)c4)cc3)CC2)C1 + Oc1cc(-c2nc(-c3ccccc3)[nH]c2-c2ccncc2)ccc1Cl [L779450] (first compound 0.4 µM, partner dose 0.2 µM) | 326% | 71.1% | 794% | 67.2% | 94.8% | 70.8%
6 | NC(=O)c1ccc(N(C(N)=O)c2c(F)cccc2F)nc1-c1ccc(F)cc1F + Oc1cc(-c2nc(-c3ccccc3)[nH]c2-c2ccncc2)ccc1Cl [L779450] (first compound 0.4 µM, partner dose 0.2 µM) | 107% | 130% | 90.8% | 41.7% | 203% | 19.3%
7 | C[C@@H](N)c1ccc(C(=O)Nc2ccnc3[nH]ccc23)cc1 + CO[C@H]1C[C@@H]2CC[C@@H](C)[C@@](O)(O2)C(=O)C(=O)N2CCCC[C@H]2C(=O)O[C@H]([C@H](C)C[C@@H]2CC[C@@H](OCCO)[C@H](OC)C2)CC(=O)[C@H](C)/C=C(\C)[C@@H](O)[C@@H](OC)C(=O)[C@H](C)C[C@H](C)/C=C/C=C/C=C/1C [everolimus] (first compound 0.4 µM, partner dose 0.02 µM) | 195% | 345% | 103% | 34.7% | 153% | 46.5%
8 | COc1ccc(C2=N[C@@H](c3ccc(Cl)cc3)[C@@H](c3ccc(Cl)cc3)N2C(=O)N2CCNC(=O)C2)c(OC(C)C)c1 [Nutlin-3] + NC(=O)Nc1cc(-c2cccc(F)c2)sc1C(=O)N[C@H]1CCCNC1 [AZD7762] (first compound 0.1 µM, partner dose 0.02 µM) | 120% | 125% | 103% | 35.4% | 138% | 173%
9 | C[C@@H](N)c1ccc(C(=O)Nc2ccnc3[nH]ccc23)cc1 + Cn1cnc2c(F)c(Nc3ccc(Br)cc3Cl)c(C(=O)NOCCO)cc21 [selumetinib] (first compound 0.4 µM, partner dose 0.015 µM) | 82.8% | 116% | 112% | 70.2% | 120% | 157%
10 | CCN(CC)CCNC(=O)c1c(C)[nH]c(/C=C2\C(=O)Nc3ccc(F)cc32)c1C [sunitinib] + O=S(=O)(c1ccccc1)N(CC(F)(F)F)c1ccc(C(O)(C(F)(F)F)C(F)(F)F)cc1 [T0901317] (first compound 0.4 µM, partner dose 1.4 µM) | 109% | 61.1% | 211% | 84.2% | 88.6% | 37.9%
11 | NC(=O)c1ccc(N(C(N)=O)c2c(F)cccc2F)nc1-c1ccc(F)cc1F + O=C(O)c1ccc2c(c1)nc(Nc1cccc(Cl)c1)c1ccncc12 [CX4945] (first compound 0.4 µM, partner dose 0.4 µM) | 163% | 225% | 41.6% | 132% | 115% | 79.6%
12 | CS(=O)(=O)c1ccc(C(=O)Nc2ccc(Cl)c(-c3ccccn3)c2)c(Cl)c1 [vismodegib] + COc1ccc2c(c1)CCC1C2CCC2(C)C(NCCCCCCN3C(=O)C=CC3=O)CCC12 [U73122] (first compound 1 µM, partner dose 0.4 µM) | 112% | 62.7% | 90.1% | 113% | 82.4% | 37.2%
13 | C[C@@H](N)c1ccc(C(=O)Nc2ccnc3[nH]ccc23)cc1 + CN(NC(=O)CC(=O)NN(C)C(=S)c1ccccc1)C(=S)c1ccccc1 [STA4783] (first compound 0.4 µM, partner dose 0.006 µM) | 233% | 1040% | 296% | 50.6% | 185% | 250%
14 | CCN(CC)CCNC(=O)c1c(C)[nH]c(/C=C2\C(=O)Nc3ccc(F)cc32)c1C [sunitinib] + Nc1ccn([C@@H]2O[C@H](CO)[C@@H](O)C2(F)F)c(=O)n1 [gemcitabine] (first compound 0.4 µM, partner dose 0.0004 µM) | 108% | 47.6% | 123% | 65.7% | 110% | 281%
15 | Cn1sc(=O)n(Cc2ccccc2)c1=O + CCCS(=O)(=O)Nc1ccc(F)c(C(=O)c2c[nH]c3ncc(Cl)cc23)c1F [PLX4720] (first compound 0.4 µM, partner dose 0.08 µM) | 51.9% | 71.2% | 83.3% | 80.1% | 108% | 86.9%
16 | NC1(c2ccc(-c3nc4ccn5c(=O)[nH]nc5c4cc3-c3ccccc3)cc2)CCC1 + O=C(Nc1ccccc1)c1cc([N+](=O)[O-])ccc1Cl [GW9662] (first compound 0.4 µM, partner dose 2 µM) | 23.2% | 27.9% | 109% | 203% | 85.3% | 66.9%
17 | CCCCCCCCc1ccc(CCC(N)(CO)CO)cc1 [fingolimod] + CCCCCCCCCCCC1=C(O)C(=O)C=C(O)C1=O [Embelin] (first compound 2 µM, partner dose 1.2 µM) | 26.2% | 112% | 108% | 133% | 207% | 84.8%
18 | NC(=O)c1ccc(N(C(N)=O)c2c(F)cccc2F)nc1-c1ccc(F)cc1F + O=C1NC(=O)/C(=C/c2ccc(-c3ccc(F)cc3O)o2)S1 [AS252424] (first compound 0.4 µM, partner dose 1 µM) | 122% | 206% | 97.4% | 204% | 86.2% | 32.2%
19 | CCCCCCCCc1ccc(CCC(N)(CO)CO)cc1 [fingolimod] + Nc1ccn([C@@H]2O[C@H](CO)[C@@H](O)C2(F)F)c(=O)n1 [gemcitabine] (first compound 2 µM, partner dose 0.0004 µM) | 139% | 332% | 114% | 44% | 110% | 35.5%
20 | CCCCCCCCc1ccc(CCC(N)(CO)CO)cc1 [fingolimod] + O=C1NC(=O)/C(=C/c2ccc(-c3ccc(F)cc3O)o2)S1 [AS252424] (first compound 2 µM, partner dose 1 µM) | 167% | 56.4% | 133% | 172% | 103% | 133%
21 | NC(=O)c1ccc(N(C(N)=O)c2c(F)cccc2F)nc1-c1ccc(F)cc1F + CN1CCN(c2ccc3nc(-c4c(N)c5c(F)cccc5[nH]c4=O)[nH]c3c2)CC1 [Dovitinib] (first compound 0.4 µM, partner dose 0.1 µM) | 125% | 554% | 206% | 54.9% | 81.7% | 82.9%
22 | CS(=O)(=O)c1ccc(C(=O)Nc2ccc(Cl)c(-c3ccccn3)c2)c(Cl)c1 [vismodegib] + COc1ccc(-c2ccc3c(N4CCOCC4)nc(N4C[C@@H](C)O[C@@H](C)C4)nc3n2)cc1CO [KU0063794] (first compound 1 µM, partner dose 0.02 µM) | 99.3% | 35.6% | 81.5% | 135% | 282% | 31.8%
23 | Cn1sc(=O)n(Cc2ccccc2)c1=O + O=C(O)c1ccc2c(c1)nc(Nc1cccc(Cl)c1)c1ccncc12 [CX4945] (first compound 0.4 µM, partner dose 0.4 µM) | 137% | 126% | 103% | 76% | 125% | 65.3%

Reformatted with tabs: part of the list above
Row	Compound	cleaved PARP positive nuclei fraction (WM115)	cleaved PARP positive nuclei fraction (WM1716)	cleaved PARP positive nuclei fraction (WM1745)	cleaved PARP positive nuclei fraction (WM3526)	cleaved PARP positive nuclei fraction (WM3619)	cleaved PARP positive nuclei fraction (WM451Lu)
11	NC(=O)c1ccc(N(C(N)=O)c2c(F)cccc2F)nc1-c1ccc(F)cc1F + O=C(O)c1ccc2c(c1)nc(Nc1cccc(Cl)c1)c1ccncc12 [CX4945] (first compound 0.4 µM, partner dose 0.4 µM)	163%	225%	41.6%	132%	115%	79.6%
12	CS(=O)(=O)c1ccc(C(=O)Nc2ccc(Cl)c(-c3ccccn3)c2)c(Cl)c1 [vismodegib] + COc1ccc2c(c1)CCC1C2CCC2(C)C(NCCCCCCN3C(=O)C=CC3=O)CCC12 [U73122] (first compound 1 µM, partner dose 0.4 µM)	112%	62.7%	90.1%	113%	82.4%	37.2%
